# Results reported in PubChem BioAssay AID2685 (National Center for Advancing Translational Sciences (NCATS), 2010).
# The other results are listed elsewhere or left out. Further columns of the screen follow, without active or inactive calls. Most of these compounds were active or inconclusive in the main read-out, so they are no random draw. Potencies come from curve fits of mixed quality, noted in brackets.
# Experiment: qHTS Assay for Lipid Storage Modulators in Drosophila S3 Cells;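 on cell number change: cells counted by Cell Tracker Red CMTPX staining in the red channel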
# Details: BODIPY lipid droplet fluorescence, 18-24 h; for cell number change: measured here: cell count max response, cells fed with added oleic acid
# Outline: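 Drosophila S3 cells loaded with oleic acid (400 uM, as added) and compounds at several concentrations; lipid droplets imaged by 488-nm laser-scanning cytometry, 500–530 nm intensity and object ratio to cell channel. Percent activity normalized to 20 uM Triacsin C.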
# [1] = measured here: lipid fluorescence (Fed channel) AC50, cells fed with added oleic acid
# [2] = measured here: cell number channel AC50, cells fed with added oleic acid
compound,measurement,setting,value
COc1ccccc1C1(CC(=O)O)CCOC(C)(C)C1 (stereo not given),cell number change,,0.542%
COC(=O)CCC(=O)NNC(=O)c1ccc(Br)cc1,AC50,[1],"2.59 µM [rising, partial curve, poor fit]"
Cc1ccc(C(=O)O)cc1N1C(=O)CCCC1=O,cell number change,,-8.59%
same,AC50,[1],"0.0058 µM [falling, full curve, poor fit]"
Cn1cccc1C(=O)OCC(=O)NCc1ccc2c(c1)OCO2,cell number change,,29.7%
same,AC50,[1],"9.2 µM [rising, partial curve]"
O=C(O)c1ccc(CN2C(=O)c3cccc4c([N+](=O)[O-])ccc(c34)C2=O)cc1,cell number change,,-63.9%
same,AC50,[2],"25.9 µM [falling, single point]"
same,AC50,[1],"7.31 µM [rising, partial curve]"
Cc1ccc(C(=O)N2CCN(c3ccccc3)CC2)cc1NC(=O)c1ccco1,cell number change,,-2.6%
same,AC50,[1],"6.51 µM [rising, single point]"
CC(=O)c1ccc(OC(C)C)c(CSC(=N)N)c1,cell number change,,-15.1%
same,AC50,[1],"29.1 µM [falling, single point]"
O=C(COC(=O)c1cc2ccccc2cc1O)c1ccccc1,cell number change,,18.5%
same,AC50,[1],"29.1 µM [rising, partial curve]"
CC(C)OCCCNC(=O)COCC(=O)Nc1ccc(OCCc2ccccc2)cc1,cell number change,,11.8%
COc1ccc(OC)c(N(CC(=O)N2CCCC2)S(=O)(=O)c2ccc(C)cc2)c1,cell number change,,-3.95%
same,AC50,[1],"5.62 µM [rising, single point]"
CCOCCCNC(=O)C(NC(=O)c1ccc2c(c1)OCO2)c1ccc(OC)cc1 (stereo not given),cell number change,,-25.7%
same,AC50,[1],"0.082 µM [falling, full curve, poor fit]"
O=C1NC2(CCCCCC2)C(=O)N1Cc1ccccc1,cell number change,,18%
same,AC50,[1],"8.2 µM [rising, partial curve]"
CCCCCCC(=O)NN1CCN(C)CC1,AC50,[1],"23.1 µM [falling, partial curve]"
CCCCn1c(NC(C)CC)nc2c1c(=O)[nH]c(=O)n2C (stereo not given),cell number change,,-34.1%
same,AC50,[2],"6.51 µM [falling, partial curve, poor fit]"
same,AC50,[1],"29.1 µM [rising, single point]"
CC(C)CC1NC(=O)N(CC(=O)N2c3ccccc3NC(=O)C2(C)C)C1=O (stereo not given),cell number change,,-36.2%
same,AC50,[2],"32.6 µM [falling, single point]"
same,AC50,[1],"25.9 µM [falling, partial curve, poor fit]"
O=S(=O)(c1ccccc1)N1CCC(O)(CSc2ccc(F)cc2)CC1,cell number change,,-10.7%
CC(=O)c1c(C)[nH]c(C(=O)COC(=O)c2cccnc2Cl)c1C,cell number change,,3.57%
same,AC50,[1],"0.731 µM [rising, single point]"
COC(=O)c1ccc(COC(=O)c2[nH]c(C)c(C(C)=O)c2C)o1,cell number change,,-16.9%
same,AC50,[1],"16.4 µM [falling, single point]"
O=C(O)c1ccc(NC(=O)C2CC=CCC2C(=O)O)cc1 (stereo not given),AC50,[1],"0.291 µM [falling, full curve, poor fit]"
CC(=O)Nc1cccc(NC(=O)c2cc3ccccc3o2)c1,cell number change,,-21.3%
same,AC50,[2],"4.61 µM [falling, single point]"
same,AC50,[1],"9.2 µM [falling, partial curve]"
CC(Nc1ccccc1)C(=O)Nc1ccc(F)cc1 (stereo not given),cell number change,,-0.551%
same,AC50,[2],"0.0731 µM [rising, full curve, poor fit]"
Nc1nc(-c2ccccc2)cn1N,cell number change,,-19.7%
same,AC50,[1],"20.6 µM [falling, partial curve, poor fit]"
O=C(ONC1=NCCCCC1)c1cccc([N+](=O)[O-])c1,cell number change,,-128%
same,AC50,[2],"16.4 µM [falling, partial curve]"
same,AC50,[1],"18.4 µM [falling, partial curve]"
CCCCC1=CC2=C(c3ccco3)C(=O)C(C)(OC(=O)c3ccc(OC)cc3)C(=O)C2=CN1C1CCCCC1 (stereo not given),cell number change,,-68.6%
same,AC50,[2],"25.9 µM [falling, partial curve]"
CC1=C(C(=O)OC(C)C)C(c2cccnc2)n2ncnc2N1 (stereo not given),AC50,[1],"0.411 µM [rising, single point]"
Cc1ccc(-c2csc(NC(=O)N3CCOCC3)n2)cc1,cell number change,,-22.5%
same,AC50,[2],"3.66 µM [falling, full curve, poor fit]"
same,AC50,[1],"6.51 µM [falling, single point]"
CSCCOC(=O)COc1ccc(/C=N/NC(=O)c2nn(C)cc2Cl)cc1,AC50,[1],"6.51 µM [rising, single point]"
CC(Sc1nnc(-c2ccccc2)c(-c2ccccc2)n1)C(=O)N1CCc2ccccc21 (stereo not given),cell number change,,-22.3%
same,AC50,[1],"18.4 µM [falling, single point]"
COCCCN1C(=O)C(=O)/C(=C(/O)c2ccc(S(=O)(=O)N3CCCCC3)cc2)C1c1cccc(OC)c1 (stereo not given),cell number change,,31%
same,AC50,[2],"0.92 µM [rising, full curve, poor fit]"
same,AC50,[1],"29.1 µM [rising, single point]"
COc1ccccc1CNC(=O)COC(=O)C1CCN(S(=O)(=O)c2ccc(C)c(C)c2)CC1,AC50,[1],"20.6 µM [rising, single point]"
COc1ccc(NS(=O)(=O)c2ccc3c(c2)NC(=O)C(C)S3)cc1 (stereo not given),cell number change,,-15.3%
same,AC50,[1],"29.1 µM [falling, single point]"
COc1ccc(NC(=O)c2cnc(SCC(=O)NCCc3ccccc3)n(C)c2=O)cc1,AC50,[1],"1.46 µM [rising, partial curve]"
Cn1c(S(=O)(=O)O)nc2ccccc21,cell number change,,-2.88%
same,AC50,[1],"4.61 µM [rising, partial curve]"
Cc1nnc(-c2cnn(C)c2N)n1Cc1ccccc1F,cell number change,,42.3%
same,AC50,[2],"16.4 µM [rising, single point]"
CC(C)(C)c1ccc(C(=O)NCCC(=O)Nc2cc(Cl)ccc2N2CCOCC2)cc1,cell number change,,-21.4%
same,AC50,[1],"0.146 µM [falling, full curve, poor fit]"
O=C(O)C1CCN(C(=O)c2cccc3ccccc23)CC1,cell number change,,24.6%
same,AC50,[1],"0.92 µM [falling, full curve, poor fit]"
Cc1cc(Cl)ccc1OCC(=O)NN1C(=O)C2C3C=CC(C3)C2C1=O (stereo not given),cell number change,,-14.9%
same,AC50,[1],"6.51 µM [rising, partial curve, poor fit]"
Cc1ccc2c(CN3CCN(CCO)CC3)cc(=O)oc2c1,cell number change,,-5.48%
same,AC50,[2],"6.51 µM [rising, single point]"
Cc1ccc(NC2=C(N3CCOCC3)C(=O)c3ccccc3C2=O)cc1,cell number change,,-167%
same,AC50,[2],"29.1 µM [falling, single point]"
same,AC50,[1],"29.1 µM [falling, single point]"
O=C(CSc1nnc(NCc2ccccc2)s1)NC1CCS(=O)(=O)C1 (stereo not given),cell number change,,-7.49%
same,AC50,[1],"0.0058 µM [falling, full curve]"
O=C(COc1ccc(Cl)cc1Cl)NC(=S)N1CCCc2ccccc21,cell number change,,53.7%
same,AC50,[2],"11.6 µM [rising, partial curve]"
same,AC50,[1],"0.58 µM [rising, single point]"
O=[N+]([O-])c1ccc(S(=O)(=O)Nc2ccncc2)cc1,cell number change,,-1.76%
same,AC50,[1],"0.651 µM [rising, full curve, poor fit]"
FC(F)(F)c1cccc(Cc2noc(CN3CCSCC3)n2)c1,cell number change,,3.26%
same,AC50,[1],"2.91 µM [rising, partial curve]"
O=C(NN1C(=O)C2C(C1=O)C1C=CC2C12CC2)c1ccccc1 (stereo not given),cell number change,,21.9%
same,AC50,[1],"23.1 µM [rising, single point]"
CCOC(=O)c1ccc(NC(=O)c2c(NC(=O)CCC(=O)O)sc3c2CCCCC3)cc1,cell number change,,-31.6%
same,AC50,[2],"29.1 µM [falling, single point]"
O=C(Nc1ccccn1)c1cc(-c2ccc(Cl)s2)nc2ccccc12,cell number change,,16.3%
same,AC50,[2],"0.13 µM [rising, full curve, poor fit]"
same,AC50,[1],"5.17 µM [rising, partial curve, poor fit]"
Cc1ccc(C)c(-c2csc(N)c2C(=O)OC(C)C)c1,cell number change,,-26%
same,AC50,[2],"0.082 µM [falling, full curve, poor fit]"
same,AC50,[1],"0.116 µM [falling, full curve, poor fit]"
CCOC(=O)N1CCN(C(=O)c2ccc(N3C(=O)c4ccccc4C3=O)cc2)CC1,cell number change,,5.21%
same,AC50,[1],"18.4 µM [rising, single point]"
Cc1ccc(-c2nn(C)c(=O)c3ccccc23)cc1S(=O)(=O)NCCO,cell number change,,-7.29%
same,AC50,[1],"0.231 µM [rising, partial curve, poor fit]"
CC(=O)c1c(C)[nH]c(C(=O)CN2CCN(S(=O)(=O)c3ccc(C(C)C)cc3)CC2)c1C,cell number change,,-16.8%
same,AC50,[1],"0.326 µM [falling, full curve, poor fit]"
O=P(c1ccccc1)(c1ccccc1)c1nc(-c2ccc(Cl)cc2)oc1N1CCOCC1,cell number change,,-54.5%
same,AC50,[2],"23.1 µM [falling, single point]"
same,AC50,[1],"18.4 µM [falling, single point]"
CCOc1ccc(-n2cc(C(=O)Nc3cccc(Cl)c3)c3cc(OC)c(OC)cc3c2=O)cc1,cell number change,,-8.71%
same,AC50,[1],"29.1 µM [rising, single point]"
O=C(O)CC(CC(=O)O)(C(=O)O)c1ccccc1,cell number change,,-20.2%
same,AC50,[2],"0.116 µM [falling, full curve, poor fit]"
CC1CCC(NS(=O)(=O)c2ccc(Cl)s2)CC1 (stereo not given),cell number change,,64.7%
C=CCNC(=S)Nc1cccc2[nH]ncc12,cell number change,,-50.1%
same,AC50,[2],"0.259 µM [falling, partial curve, poor fit]"
Cc1ccc(CONC(=O)c2ccc(C)cc2)cc1,cell number change,,-8.39%
same,AC50,[1],"0.82 µM [rising, partial curve, poor fit]"
O=C1c2oc3ccc(F)cc3c(=O)c2C(c2ccccc2)N1CC1CCCO1 (stereo not given),cell number change,,-2.95%
CC(C)CN(C(=O)CN(C)C(=O)Cc1ccccc1Cl)c1c(N)n(CC(C)C)c(=O)[nH]c1=O,cell number change,,4.69%

# Some of the entries above in a different format:
compound | measurement | setting | value
O=C(ONC1=NCCCCC1)c1cccc([N+](=O)[O-])c1 | cell number change |  | -128%
CCCCC1=CC2=C(c3ccco3)C(=O)C(C)(OC(=O)c3ccc(OC)cc3)C(=O)C2=CN1C1CCCCC1 (stereo not given) | cell number change |  | -68.6%
COCCCN1C(=O)C(=O)/C(=C(/O)c2ccc(S(=O)(=O)N3CCCCC3)cc2)C1c1cccc(OC)c1 (stereo not given) | cell number change |  | 31%

# Given with bars between the fields: entries from further up
compound | measurement | setting | value
O=C(COC(=O)c1cc2ccccc2cc1O)c1ccccc1 | AC50 | [1] | 29.1 µM [rising, partial curve]
Cc1ccc(C)c(-c2csc(N)c2C(=O)OC(C)C)c1 | AC50 | [2] | 0.082 µM [falling, full curve, poor fit]
Cc1ccc(CONC(=O)c2ccc(C)cc2)cc1 | AC50 | [1] | 0.82 µM [rising, partial curve, poor fit]
